The assay can be described thus: qHTS Assay for Lipid Storage Modulators in Drosophila S3 Cells.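 On cell number change: cells counted by Cell Tracker Red CMTPX staining in the red channel.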 As to conditions: BODIPY lipid droplet fluorescence, 18-24 h; for cell number change: measured here: cell count max response, cells fed with added oleic acid. The gist of the method: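 Laser-scanning cytometry quantifies lipid droplet accumulation (500–530 nm total intensity; droplet/cell object ratio) in oleic acid-fed (400 uM added) Drosophila S3 cells treated with a concentration series. 20 uM Triacsin C defined 100% inhibition.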

Where [1] appears, read: measured here: lipid fluorescence (Fed channel) AC50, cells fed with added oleic acid.
[2] abbreviates: measured here: cell number channel AC50, cells fed with added oleic acid.

Each structure is given as a SMILES string. Some of the results follow. These are further read-outs of the screen, such as a control signal, another cell line or another target. No call is given for them. Compounds called inactive in the main read-out are mostly missing here. Words in brackets tell the shape of the fitted curve; partial curves, single points and poor fits give uncertain potencies.

As usually defined, the AC50 is the concentration at which the activity in the assay is half-maximal. High values mean activity only at high concentration, low ones activity at low concentration. Take `COc1ccc(CCNCC(O)COc2ccc(OC)cc2C(C)(C)C)cc1` (stereo not given): the cell number change is -8.82%. Moreover, the AC50 under setting [1] was 20.6 µM [falling, single point].

Take `O=C(Nc1ccc(NC(=O)c2cccs2)cc1)c1ccc2c(c1)OCO2`: the cell number change is -18.7%. In addition, the AC50 under setting [1] was 0.146 µM [falling, full curve, poor fit].

For `O=C(NNC(=O)c1ccccc1[N+](=O)[O-])c1ccccc1[N+](=O)[O-]`, the AC50 under setting [1] was 5.8 µM [rising, single point].

Take `NS(=O)(=O)c1ccc(CCNC(=O)Nc2ccc(Cl)cc2)cc1`: the cell number change was -9.73%. Further, the AC50 under setting [1] is 0.103 µM [rising, full curve, poor fit].

For `O=C(c1ccco1)N1CCN(c2ncnc3c2[nH]c2ccccc23)CC1`, the AC50 under setting [1] is 0.517 µM [falling, single point].

In the case of `CCOCCCNC(=O)CCc1ccc(S(=O)(=O)Nc2ccc(C)cc2)cc1`, the cell number change was -5.2%.

As to `COc1ccc(NC(=O)c2ccccc2)cc1NS(=O)(=O)c1ccc(F)cc1`, the cell number change was 13.7%. Besides, under setting [1], the AC50 was 2.06 µM [rising, partial curve].

On to `O=C1C(Cl)=C(N2CCOCC2)C(=O)N1c1ccccc1`, for which the cell number change was -19%. The AC50 under setting [1] is 4.61 µM [falling, full curve, poor fit].

On to `Cn1c(=O)c2sccc2n2c(CCCC(=O)N3CCCCC3)nnc12`, for which the AC50 under setting [1] is 14.6 µM [falling, partial curve].

Consider `O=C(Nc1cccc(C(F)(F)F)c1)c1cccnc1NCCO`, for which the AC50 under setting [1] was 3.66 µM [falling, full curve].

Consider `CCOc1ccc(C(=O)Nc2ccccc2NC(C)=O)cc1OCC`, for which the cell number change stood at 13%.

For `COc1ccc(C(=O)NC(=S)NNC(=O)c2c(-c3ccccc3)noc2C)cc1`, the cell number change was -1.45%.

`CC(=O)N/C(=N\c1nc(C)cc(C)n1)Nc1ccc(Cl)cc1Cl`: the cell number change was -45.1%. For the same molecule, the AC50 under setting [2] is 29.1 µM [falling, single point].

As to `COc1ccc(CNC(=O)CN(C)Cc2ccc(C(C)(C)C)cc2)cc1`, the cell number change was -34.1%. The AC50 under setting [2] is 29.1 µM [falling, single point]. For the same molecule, the AC50 under setting [1] is 18.4 µM [falling, single point].

On to `COCC(=O)Nc1nc(-c2ccccc2)c(C)s1`, for which the cell number change was -37.2%. The AC50 under setting [2] was 10.3 µM [falling, partial curve]. The AC50 under setting [1] was 6.51 µM [falling, partial curve, poor fit].

Turning to `CCOC(=O)C1CCCN(C(=O)c2cc(CN3C(=O)c4ccccc4C3=O)ccc2OC)C1` (stereo not given), the cell number change is -25%. Besides, the AC50 under setting [2] is 6.51 µM [rising, partial curve]. Moreover, the half-maximal activity concentration (AC50) under setting [1] is 2.91 µM [falling, partial curve].

In the case of `CC(=O)c1sc(NC(=O)COc2ccccc2)nc1C`, the AC50 runs as follows: under setting [2], 0.00461 µM [rising, full curve, poor fit]; under setting [1], 0.00461 µM [rising, full curve, poor fit].

For `CCOc1cc(/C=N/NC(=O)c2ccc(-c3csc(Nc4ccc(C)cc4)n3)cc2)ccc1OCC(=O)O`, the cell number change was 18.7%. For the same molecule, the AC50 under setting [2] was 1.84 µM [rising, full curve, poor fit].

For `O=C(CSc1ncccn1)Nc1cccc2ccccc12`, the cell number change came out at 20.3%. Besides, under setting [1], the AC50 is 4.11 µM [rising, full curve].

In the case of `COc1cccc(-c2c(C(=O)N/N=C(\C)c3ccc(Cl)s3)nnn2-c2nonc2N)c1`, the cell number change was 19.8%. The AC50 under setting [1] is 6.51 µM [rising, single point].

Regarding `Fc1cccc(NC(=S)N2CCN(c3ccccn3)CC2)c1`, the cell number change was -20.1%. Further, the AC50 under setting [1] is 0.082 µM [rising, full curve, poor fit].

For `CCOC(=O)C1CCCN(C(=O)c2ccc3c(=O)n(Cc4ccccc4OC)c(=S)[nH]c3c2)C1` (stereo not given), the cell number change is -15%. Further, the AC50 under setting [2] is 2.31 µM [rising, partial curve, poor fit]. Further, the concentration at half-maximal activity (AC50) under setting [1] is 29.1 µM [falling, single point].

Turning to `O=C(NCC(=O)N1CCCCCCC1)c1ccc(Br)o1`, the cell number change amounted to 32.8%. Moreover, under setting [2], the AC50 is 10.3 µM [rising, partial curve, poor fit]. Besides, the AC50 under setting [1] was 5.17 µM [rising, partial curve, poor fit].

On to `O=C(Cn1cnc2ccccc21)Nc1ccc(SC(F)F)cc1`, for which the cell number change is -38.7%. Besides, the AC50 under setting [2] is 0.00461 µM [falling, full curve, poor fit].

With `CCOC(=O)CSc1nnc(CNC(=O)c2ccc(OC)c(OC)c2)n1C`, the cell number change was -75.9%. For the same molecule, the AC50 under setting [2] was 7.31 µM [falling, partial curve]. For the same molecule, the AC50 under setting [1] was 29.1 µM [falling, single point].

In the case of `COc1ccc(C)cc1NC(=O)c1nn(-c2ccccc2)cc1OC`, the cell number change is 32.9%. Moreover, under setting [1], the AC50 was 0.164 µM [rising, full curve, poor fit].

As to `CC(C)c1nnc(NC(=O)c2nc(S(=O)(=O)Cc3ccccc3F)ncc2Cl)s1`, the AC50 under setting [1] was 0.651 µM [falling, partial curve, poor fit].

As to `CNC(=O)C(=O)N/N=C/c1ccc(Br)cc1`, the cell number change is -45.6%. In addition, the AC50 under setting [2] is 29.1 µM [falling, partial curve, poor fit]. The AC50 under setting [1] is 0.092 µM [falling, partial curve, poor fit].

As to `CCOc1ccc(-n2nnc3c(=O)n(CC(=O)Nc4cc(C)on4)cnc32)cc1`, the AC50 under setting [2] is 0.259 µM [rising, single point].

As for `N#Cc1c(NC(=O)C2CC(c3ccccc3Cl)=NO2)sc2c1CCC2` (stereo not given), the cell number change was -6.97%.

For `O=C(c1ccc(Br)o1)N1CCN=C1SCc1cccc(F)c1`, the cell number change is -4.05%. In addition, the AC50 under setting [1] was 18.4 µM [rising, single point].

On to `CCOC(=O)c1c(NC(=O)COc2cccc3c2CCN(Cc2ccc(F)cc2)C3=O)sc2c1CCC2`, for which the cell number change was 14.1%. Moreover, the AC50 under setting [1] is 0.461 µM [rising, full curve, poor fit].

For the molecule `O=C(NCc1ccc(F)cc1)c1cc(S(=O)(=O)N2CCOCC2)ccc1F`, the cell number change is 33.7%. For the same molecule, the AC50 under setting [2] is 29.1 µM [rising, single point]. For the same molecule, under setting [1], the AC50 was 11.6 µM [rising, partial curve].

With `Nc1nc(SCC(=O)c2cc3ccccc3o2)n[nH]1`, the cell number change was -11.9%. Besides, under setting [1], the AC50 is 0.259 µM [falling, full curve, poor fit].

Turning to `CC(NC(=O)Cn1cnc2c1c(=O)n(C)c(=O)n2C)c1ccccc1` (stereo not given), the cell number change came to 17.7%.

As for `CC(C)[C@H](NC(=O)NCCc1ccc(F)cc1)C(=O)O`, the AC50 runs as follows: under setting [2], 0.0231 µM [rising, full curve, poor fit]; under setting [1], 1.16 µM [rising, partial curve, poor fit].

Turning to `COc1ccc(-c2noc(CN(C)Cc3ccccc3)n2)c(OC)c1OC`, the cell number change was -20.1%. The AC50 under setting [1] is 29.1 µM [rising, single point].

With `Cc1ccc(-c2nn(Cc3ccccc3)cc2C(=O)NCC2CCCO2)cc1` (stereo not given), the AC50 under setting [2] is 2.91 µM [falling, partial curve, poor fit].

Regarding `CC(C)CC(=O)Nc1cccc(-c2nc3ccccc3o2)c1`, the AC50 under setting [1] is 0.651 µM [rising, full curve, poor fit].

Regarding `CCOC(=O)C1(CCc2ccccc2)CCN(C(=O)CCc2cnccn2)CC1`, the cell number change turned out to be 12.8%. Further, the AC50 under setting [1] is 2.31 µM [rising, partial curve].

Turning to `Cc1cc(C(=O)O)cc(Br)c1N`, the cell number change stood at 16%. Besides, the AC50 under setting [2] was 0.206 µM [falling, full curve, poor fit]. Further, under setting [1], the AC50 was 1.3 µM [falling, partial curve].

Turning to `COc1ccc(S(=O)(=O)NC(C)C(=O)Nc2ccccc2C(F)(F)F)cc1` (stereo not given), the cell number change came out at 32.1%. The AC50 under setting [2] was 5.17 µM [rising, partial curve]. For the same molecule, the half-maximal activity concentration (AC50) under setting [1] is 3.66 µM [rising, single point].

Turning to `O=C1CN(C(=O)COC(=O)c2cnc(Cl)c(Cl)c2)c2ccccc2N1`, the cell number change is -46.9%. In addition, the AC50 under setting [2] is 29.1 µM [falling, single point]. Further, the AC50 under setting [1] is 0.461 µM [falling, full curve].

Regarding `Oc1ccccc1N=Cc1ccc[nH]1`, the cell number change came out at 18.1%.

Regarding `CCOC(=O)c1c(NC(=O)C(C)Sc2c[nH]c3ccccc23)sc2c1CCC2` (stereo not given), the cell number change came to 3.44%. In addition, the AC50 under setting [1] is 0.461 µM [rising, partial curve].

As for `Cc1csc(NC(=O)CCn2c(=O)oc3ccc(Cl)cc32)n1`, the cell number change was -34.8%.

Regarding `Cc1ccccc1CSc1[nH]c(=O)ncc1C`, the cell number change is -3.13%. In addition, the AC50 under setting [1] was 0.058 µM [falling, full curve, poor fit].

For the molecule `Cc1cccc(C(=O)NCCC(=O)Nc2ccc(C#N)cc2)c1`, the cell number change is -1.32%.

For the molecule `CCC(SC1=Nc2ccccc2C2=NC(CC(C)C)C(=O)N12)C(=O)Nc1ccc2c(c1)OCO2` (stereo not given), the cell number change was -20.1%. The AC50 under setting [1] is 4.11 µM [falling, single point].

Regarding `O=c1[nH]c(/C=C/c2ccc3c(c2)OCO3)c([N+](=O)[O-])c(=O)[nH]1`, the cell number change is -18.8%. Besides, the concentration at half-maximal activity (AC50) under setting [1] is 0.00461 µM [falling, full curve, poor fit].

For `CC(C)(C)C1=NN(C(=O)c2ccccc2)C(O)(C(C)(C)C)C1` (stereo not given), the cell number change is -39.1%. The AC50 under setting [2] is 9.2 µM [falling, partial curve]. Under setting [1], the AC50 is 18.4 µM [falling, single point].

In the case of `CCOC(=O)CCP(=O)(O)C(O)c1ccc(OC)cc1` (stereo not given), the cell number change was -0.972%. For the same molecule, the AC50 under setting [1] was 6.51 µM [falling, partial curve, poor fit].

On to `COc1ccc(C2C=C(c3ccc(C)c(C)c3)Nc3ncnn32)c(OC)c1OC` (stereo not given), for which the cell number change turned out to be 0.127%. Under setting [1], the AC50 was 32.6 µM [falling, single point].

Turning to `CN(C)c1ccc(/C=C(\NC(=O)c2ccccc2)C(=O)NCc2cccnc2)cc1`, the cell number change amounted to 6.67%.

Take `C#CCOCCOCCOCCNc1nc(N2CCN(C(=O)Cn3cc(CCCN=C(N)N)nn3)CC2)nc(N2CCN(C(=O)[C@H](CCCCN)n3cc(CCCC)nn3)CC2)n1`: the cell number change is -24.8%. Moreover, the AC50 under setting [2] was 0.116 µM [falling, full curve, poor fit]. Further, the AC50 under setting [1] is 20.6 µM [rising, single point].

As to `CCOC(=O)C1CCCN(C(=O)c2cc(Cl)ccc2Cl)C1` (stereo not given), the AC50 by setting is: under setting [2], 1.03 µM [falling, single point]; under setting [1], 0.58 µM [falling, single point].

Regarding `O=C(NCCc1ccccc1)c1ccc(NC(=O)c2cccnc2)cc1`, the cell number change worked out at 22.8%. The AC50 under setting [1] is 29.1 µM [falling, single point].

These data come from PubChem BioAssay AID2685 (National Center for Advancing Translational Sciences (NCATS), 2010).
